At least one peptide structure holds a part that was inferred or is arguable (an end, a ring closure or a residue). Peptide text beside a SMILES is read from it.
Legend:
[1] = tested on: jugular vein clot (tPA mediated clot lysis); assay: Rabbit jugular vein thrombolysis model II: peptide coinfused with tPA; assay type: in vivo, rabbit (New Zealand White)
Procedure: In a second experiment the enhancer peptide was administered with tPA. […] Clot lysis standard curves were performed for varying doses of tPA from […] mouse cells (Invitron). […] To compare the data, standard curves were established for each procedure. A linear dose dependency is observed with both sets of data. […] The chosen dose of tPA (0.125 mg/kg) for the peptide experiments gave 17% and 27% lysis, respectively, for the two sets of experiments. This dose was chosen as the baseline for the peptide study so that an increase in clot lysis would be observable. Increases in clot lysis were evaluated by two methods. In the first method, fold increases in % clot lysis were calculated as follows: [formula] In the second method, the equivalent dose of tPA necessary to obtain the clot lysis observed with tPA and peptide was extrapolated from the appropriate standard curve. Fold increase in tPA dose was determined as follows: [formula] A dose response study was performed with the peptides using a constant tPA dose (FIG. 5). Three doses are tested: 1.85 mg/kg, 0.185 mg/kg and 0.0185 mg/kg, which correspond to molar ratios of peptide to tPA of 385, 38.5, and 3.85, respectively with weight ratios of enhancer peptide to tPA of 15:1, 1.5:1, and 0.15:1 respectively. Peptides and tPA are infused as indicated in FIG. 4; however, the conditions of the experiments (background lysis) are as shown in standard curve 1 (FIG. 1). The enhancer peptide effect fell off drastically below 1.85 mg/kg (molar ratio of enhancer/tPA; 385 and weight ratio of 15). […] Enhancer peptides were dissolved in 1 mL water for injection (Abbott Labs, North Chicago, Ill.), and pH adjusted to 6-7 with pyrogen free NaOH (Sigma, St. Louis, Mo.). This solution was added to tPA (0.125 mg/Kg rabbit) dissolved in saline buffer containing 0.01% tween 80 in a total volume of 28 mL. Peptide and tPA were allowed to mix fifteen minutes prior to infusion. The timing of the experiment is such that the end of this time corresponded to the end of the 30 minute clot aging time. At this point, a 10% bolus was given within one minute. The rest of the solution was infused at a rate of 6 mL/hr over four hours. Blood samples were taken at hourly intervals, drawn in citrate. The final blood sample was drawn 30 minutes after the infusion is complete. […] The molar ratio of enhancer peptide to tPA was 385, 38.5 and 3.85. The wt/wt ratio of enhancer peptide/tPA was 15, 1.5 and 0.15. […] This is equivalent to the lysis achieved by a 3-fold increase in tPA dose (0.38 mg/kg tPA). See example 1 for calculations. This control peptide has a different primary sequence but is similar on the basis of functional equivalence as described by G. Glover et al., Molec. Immunol. 25:1261 (1988). These experiments were carried out in the same manner as those in standard curve 2 (FIG. 2). See Example 3. […] Each dose of enhancer peptide increased jugular vein clot lysis from 27% (tPA control) to 57%. […] The enhancer peptide was infused without tPA to determine if the mechanism of action was something other than action upon the exogenous tPA. […] This agrees with data where peptide was applied directly to the clot (FIG. 3).

[2] = tested on: isolated clot in the rabbit jugular vein (tPA mediated clot lysis); assay: Rabbit jugular vein thrombolysis model I: peptide added during clot formation, then tPA infusion; assay type: in vivo, rabbit (New Zealand White)
Procedure: Two independent studies were performed using the rabbit jugular vein thrombolysis model described in D. Collen et al., J. Clin. Invest. 71:368 (1983), with minor modifications. The enhancer peptide was administered during clot formation prior to tPA administration in one set of experiments with the rabbit jugular vein thrombolysis model. The enhancer peptide produced a five-fold increase in the clot lysis obtained from infusion of 0.125 mg tPA/kg, which corresponds to the lysis observed by a six-fold increase in tPA dose.
Clot lysis standard curves were performed for varying doses of tPA from C127 mouse cells (Invitron). […] To compare the data, standard curves were established for each procedure. A linear dose dependency is observed with both sets of data. […] The chosen dose of tPA (0.125 mg/kg) for the peptide experiments gave 17% and 27% lysis, respectively, for the two sets of experiments. This dose was chosen as the baseline for the peptide study so that an increase in clot lysis would be observable. Increases in clot lysis were evaluated by two methods. In the first method, fold increases in % clot lysis were calculated as follows: [formula] In the second method, the equivalent dose of tPA necessary to obtain the clot lysis observed with tPA and peptide was extrapolated from the appropriate standard curve. Fold increase in tPA dose was determined as follows: [formula]
In vivo thrombolysis was carried out as described in Collen, D., Stassen, J. M. & Verstraete, M., J. Clin. Invest. 71:368 (1983). New Zealand White rabbits (LSR Industries, Ill.) were used instead of White Belgian Dendermond rabbits. […]
An isolated clot was formed in the rabbit jugular vein using bovine thrombin (Calbiochem, San Diego, Calif.) and ^125 I fibrinogen (Amersham, Arlington Heights, Ill.). […] Blood samples were taken every hour from the femoral vein, and clot lysis was measured by comparison of residual radioactivity in the clot at the end of 4 1/2 hours. […]

[3] = enhancer peptide 1.85 mg/kg infused without tPA

How did the “fold increase in clot lysis” value ([1]; coinfusion of 0.125 mg tPA/kg and enhancer peptide at 1.85 mg/kg and 18.5 mg/kg) turn out when `CC[C@H](C)[C@H](NC(=O)[C@H](Cc1ccccc1)NC(=O)[C@@H](NC(=O)[C@H](CC(C)C)NC(=O)[C@H](Cc1ccccc1)NC(=O)[C@@H]1CCCN1C(=O)[C@H](CCCNC(=N)N)NC(=O)[C@H](CC(N)=O)NC(=O)[C@H](C)NC(=O)[C@H](CCCCN)NC(=O)[C@H](Cc1ccccc1)NC(=O)[C@@H](NC(=O)[C@@H](NC(=O)[C@H](CCCNC(=N)N)NC(=O)[C@H](CC(N)=O)NC(=O)[C@@H]1CCCN1C(=O)[C@H](CC(N)=O)NC(=O)[C@H](CC(C)C)NC(=O)[C@H](CO)NC(=O)[C@H](CCCNC(=N)N)NC(=O)CNC(=O)[C@H](C)N)C(C)C)[C@@H](C)O)C(C)C)C(=O)O` [enhancer peptide] (H-AGRSLNPNRVTFKANRPFLVFI-OH) was run?
The value was “five-fold”.

What about the “equivalent dose of tPA alone needed for observed clot lysis” value ([1]; coinfusion of enhancer peptide with 0.125 mg/kg tPA) of the same molecule?
Its value is 0.38 mg/kg.

What about the “jugular vein clot lysis” value ([1]; each dose of enhancer peptide coinfused with tPA 0.125 mg/kg, 17% background lysis) of the same molecule?
The value was 57%.

What about the clot lysis [1, 3] of the same molecule?
Its clot lysis is 24 +/- 4.

What about the “effect on clot lysis” value [1, 3] of the same molecule?
Its value is “did not increase significantly”.

What about the “effect on clot lysis, dose response” value ([1]; enhancer peptide doses below 1.85 mg/kg (0.185, 0.0185 mg/kg) coinfused with tPA 0.125 mg/kg, background as standard curve 1) of the same molecule?
Its value is “No significant increase in clot lysis”.

What about the “effect on clot lysis” value ([1]; enhancer peptide infused along with tPA 0.125 mg/kg) of the same molecule?
The value was “significant increases in clot lysis”.

And the “fold increase in clot lysis” value ([2]; enhancer peptide administered during clot formation prior to tPA, infusion of 0.125 mg tPA/kg)?
The value was “five-fold”.

And the “effect on clot lysis” value ([2]; peptide at 10 μM and 100 μM in the clot, tPA 0.125 mg/kg infused, effect only at 100 μM)?
Its value is “increased clot lysis significantly only at the 100 μM concentration”.

What about the “equivalent dose of tPA alone needed for observed clot lysis” value ([2]; peptide in clot (100 μM), 0.125 mg/kg tPA, extrapolated from standard curve 1) of the same molecule?
The value was “approximately 0.8 mg/kg”.

With `CC[C@H](C)[C@H](NC(=O)[C@H](Cc1ccccc1)NC(=O)[C@@H](NC(=O)[C@H](CCC(N)=O)NC(=O)[C@@H](NC(=O)CNC(=O)CNC(=O)[C@H](CO)NC(=O)[C@H](CC(=O)O)NC(=O)[C@H](CC(C)C)NC(=O)[C@@H](NC(=O)[C@H](CC(C)C)NC(=O)[C@@H](NC(=O)[C@@H](NC(=O)[C@H](CC(C)C)NC(=O)CNC(=O)[C@H](CCCNC(=N)N)NC(=O)[C@H](CCC(N)=O)NC(=O)[C@H](CC(C)C)NC(=O)[C@H](CCCCN)NC(=O)[C@@H](N)Cc1ccc(O)cc1)C(C)C)[C@@H](C)CC)C(C)C)[C@@H](C)O)C(C)C)C(=O)N[C@H](C(=O)N[C@H](C(=O)N[C@@H](CCCCN)C(=O)N[C@@H](CC(C)C)C(=O)N[C@@H](CC(N)=O)C(=O)N[C@@H](CCC(N)=O)C(=O)NCC(=O)N[C@H](C(=O)N[C@@H](CO)C(=O)N[C@@H](CCCCN)C(=O)O)[C@@H](C)O)[C@@H](C)O)C(C)C` [control peptide, Tyr--Lys--Leu--Gln--Arg--Gly--Leu--Val--Ile--Leu--Val--Leu--Asp--Ser--Gly--Gly--Thr--Gln--Val--Phe--Ile--Val--Thr--Lys--Leu--Asn--Gln--Gly--Thr--Ser--Lys, reference compound] (H-YKLQRGLVILVLDSGGTQVFIVTKLNQGTSK-OH) as the molecule, how does the “effect on clot lysis” value ([1]; control peptide, same doses as enhancer peptide) read?
The value was “did not effect clot lysis”.
